The values below come from PMC4424349.

Amino acid sequences for entries named in this document (tags omitted).
UniProt Q8I5L6: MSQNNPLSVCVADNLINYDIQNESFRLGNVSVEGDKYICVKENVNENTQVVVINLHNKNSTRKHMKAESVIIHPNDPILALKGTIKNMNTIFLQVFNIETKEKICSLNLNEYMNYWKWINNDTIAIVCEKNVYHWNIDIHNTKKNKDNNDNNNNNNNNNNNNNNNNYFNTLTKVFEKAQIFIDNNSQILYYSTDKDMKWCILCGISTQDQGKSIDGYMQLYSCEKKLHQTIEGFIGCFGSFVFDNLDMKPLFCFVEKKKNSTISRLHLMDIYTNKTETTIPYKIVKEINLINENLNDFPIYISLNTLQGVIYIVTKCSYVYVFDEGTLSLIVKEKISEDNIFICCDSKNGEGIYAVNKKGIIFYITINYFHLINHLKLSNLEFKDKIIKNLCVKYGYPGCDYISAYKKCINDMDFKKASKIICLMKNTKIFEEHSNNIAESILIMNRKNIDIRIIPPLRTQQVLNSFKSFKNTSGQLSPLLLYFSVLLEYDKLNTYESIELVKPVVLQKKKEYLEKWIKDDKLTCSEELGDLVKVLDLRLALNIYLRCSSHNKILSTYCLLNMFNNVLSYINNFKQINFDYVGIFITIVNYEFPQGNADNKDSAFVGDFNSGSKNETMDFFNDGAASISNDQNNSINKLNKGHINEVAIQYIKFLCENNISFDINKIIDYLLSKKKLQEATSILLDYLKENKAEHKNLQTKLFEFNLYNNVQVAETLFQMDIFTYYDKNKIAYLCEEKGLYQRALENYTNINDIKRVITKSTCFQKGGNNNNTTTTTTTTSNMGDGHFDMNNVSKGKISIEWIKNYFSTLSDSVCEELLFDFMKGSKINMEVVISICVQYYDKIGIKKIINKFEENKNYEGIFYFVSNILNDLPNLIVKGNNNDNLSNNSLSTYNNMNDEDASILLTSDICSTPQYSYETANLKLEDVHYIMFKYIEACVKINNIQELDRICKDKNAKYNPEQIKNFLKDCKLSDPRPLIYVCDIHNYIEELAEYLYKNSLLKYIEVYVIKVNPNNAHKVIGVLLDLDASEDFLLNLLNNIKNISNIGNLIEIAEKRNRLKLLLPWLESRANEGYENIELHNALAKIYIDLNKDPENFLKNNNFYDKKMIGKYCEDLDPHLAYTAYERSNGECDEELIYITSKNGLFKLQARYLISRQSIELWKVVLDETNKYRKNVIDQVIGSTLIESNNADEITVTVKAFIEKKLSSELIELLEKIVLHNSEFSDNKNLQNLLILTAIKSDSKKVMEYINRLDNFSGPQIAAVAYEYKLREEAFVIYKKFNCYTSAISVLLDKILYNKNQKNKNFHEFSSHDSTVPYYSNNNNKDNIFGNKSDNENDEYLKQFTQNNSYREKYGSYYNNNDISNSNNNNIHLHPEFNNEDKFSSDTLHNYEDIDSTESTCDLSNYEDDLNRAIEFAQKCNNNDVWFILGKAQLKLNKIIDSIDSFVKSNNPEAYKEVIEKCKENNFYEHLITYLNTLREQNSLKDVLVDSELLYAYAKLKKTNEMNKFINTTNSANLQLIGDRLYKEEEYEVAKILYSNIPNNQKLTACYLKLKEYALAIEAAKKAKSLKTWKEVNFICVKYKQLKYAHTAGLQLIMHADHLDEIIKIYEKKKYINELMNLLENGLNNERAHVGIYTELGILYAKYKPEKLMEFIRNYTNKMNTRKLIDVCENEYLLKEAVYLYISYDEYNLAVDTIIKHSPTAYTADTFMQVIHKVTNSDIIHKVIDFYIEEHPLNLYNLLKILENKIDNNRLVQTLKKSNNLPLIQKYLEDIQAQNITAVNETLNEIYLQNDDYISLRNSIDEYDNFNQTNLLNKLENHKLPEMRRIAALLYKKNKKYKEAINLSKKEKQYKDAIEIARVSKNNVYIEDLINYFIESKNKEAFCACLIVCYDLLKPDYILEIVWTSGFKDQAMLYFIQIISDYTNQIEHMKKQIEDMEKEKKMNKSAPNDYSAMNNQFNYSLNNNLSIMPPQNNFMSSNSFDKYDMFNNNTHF
UniProt Q8I5I8: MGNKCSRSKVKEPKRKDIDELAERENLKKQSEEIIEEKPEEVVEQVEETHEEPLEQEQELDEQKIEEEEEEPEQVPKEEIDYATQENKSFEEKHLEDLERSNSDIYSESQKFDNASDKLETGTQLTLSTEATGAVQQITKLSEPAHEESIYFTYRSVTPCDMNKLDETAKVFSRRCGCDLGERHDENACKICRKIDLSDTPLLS
UniProt Q8III1: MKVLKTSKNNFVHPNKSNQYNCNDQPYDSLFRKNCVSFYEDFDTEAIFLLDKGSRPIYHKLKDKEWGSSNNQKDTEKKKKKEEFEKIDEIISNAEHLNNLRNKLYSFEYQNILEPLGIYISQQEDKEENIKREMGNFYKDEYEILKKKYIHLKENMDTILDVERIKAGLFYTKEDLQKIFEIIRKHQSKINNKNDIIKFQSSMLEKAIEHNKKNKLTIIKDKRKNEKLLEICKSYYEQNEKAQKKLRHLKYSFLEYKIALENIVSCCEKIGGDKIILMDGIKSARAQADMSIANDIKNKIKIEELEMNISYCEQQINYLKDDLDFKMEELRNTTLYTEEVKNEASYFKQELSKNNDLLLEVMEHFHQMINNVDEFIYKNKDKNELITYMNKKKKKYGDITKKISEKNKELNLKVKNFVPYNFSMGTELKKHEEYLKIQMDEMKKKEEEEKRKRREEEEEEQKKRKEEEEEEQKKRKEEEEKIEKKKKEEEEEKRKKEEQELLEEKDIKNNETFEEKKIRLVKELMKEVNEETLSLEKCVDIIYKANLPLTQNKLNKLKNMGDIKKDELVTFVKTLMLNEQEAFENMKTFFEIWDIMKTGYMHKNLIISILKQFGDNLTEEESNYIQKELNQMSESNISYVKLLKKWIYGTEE
UniProt Q8IDR3: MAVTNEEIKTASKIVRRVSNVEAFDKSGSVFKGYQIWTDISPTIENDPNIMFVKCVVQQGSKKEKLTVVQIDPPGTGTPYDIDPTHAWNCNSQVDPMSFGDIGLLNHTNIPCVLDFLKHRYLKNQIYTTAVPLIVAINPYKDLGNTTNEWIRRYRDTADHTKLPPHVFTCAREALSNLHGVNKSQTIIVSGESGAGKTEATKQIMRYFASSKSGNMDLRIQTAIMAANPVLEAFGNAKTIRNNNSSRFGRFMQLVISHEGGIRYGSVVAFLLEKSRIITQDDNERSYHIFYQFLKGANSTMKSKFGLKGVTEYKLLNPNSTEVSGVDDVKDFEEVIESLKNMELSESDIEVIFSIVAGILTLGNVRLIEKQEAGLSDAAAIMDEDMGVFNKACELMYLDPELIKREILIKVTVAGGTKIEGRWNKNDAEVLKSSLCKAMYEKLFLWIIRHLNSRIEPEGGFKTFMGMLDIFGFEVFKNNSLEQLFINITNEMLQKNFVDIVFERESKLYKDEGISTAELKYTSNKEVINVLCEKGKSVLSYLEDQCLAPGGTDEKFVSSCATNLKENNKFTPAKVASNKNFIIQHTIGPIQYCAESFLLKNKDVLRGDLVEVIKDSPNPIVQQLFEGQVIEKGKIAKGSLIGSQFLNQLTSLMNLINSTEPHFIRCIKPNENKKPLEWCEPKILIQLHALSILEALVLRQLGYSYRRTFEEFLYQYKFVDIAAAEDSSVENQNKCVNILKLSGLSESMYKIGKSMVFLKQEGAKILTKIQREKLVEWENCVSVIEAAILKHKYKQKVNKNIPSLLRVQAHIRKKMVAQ

These are yes or no findings as the source states them, for the method shown. Binding seen in cells or lysates may run through a third protein. Here binding means that the protein was enriched with, or labelled near, the bait; the list need not be complete. No binding means not detected with the bait. Tags and fused reporters may be left off the sequences shown.

The target of this assay is T1, PfMyoB-GFP (Plasmodium falciparum myosin B with C-terminal GFP) (Plasmodium falciparum 3D7) (UniProt Q8I465).
T1 sequence: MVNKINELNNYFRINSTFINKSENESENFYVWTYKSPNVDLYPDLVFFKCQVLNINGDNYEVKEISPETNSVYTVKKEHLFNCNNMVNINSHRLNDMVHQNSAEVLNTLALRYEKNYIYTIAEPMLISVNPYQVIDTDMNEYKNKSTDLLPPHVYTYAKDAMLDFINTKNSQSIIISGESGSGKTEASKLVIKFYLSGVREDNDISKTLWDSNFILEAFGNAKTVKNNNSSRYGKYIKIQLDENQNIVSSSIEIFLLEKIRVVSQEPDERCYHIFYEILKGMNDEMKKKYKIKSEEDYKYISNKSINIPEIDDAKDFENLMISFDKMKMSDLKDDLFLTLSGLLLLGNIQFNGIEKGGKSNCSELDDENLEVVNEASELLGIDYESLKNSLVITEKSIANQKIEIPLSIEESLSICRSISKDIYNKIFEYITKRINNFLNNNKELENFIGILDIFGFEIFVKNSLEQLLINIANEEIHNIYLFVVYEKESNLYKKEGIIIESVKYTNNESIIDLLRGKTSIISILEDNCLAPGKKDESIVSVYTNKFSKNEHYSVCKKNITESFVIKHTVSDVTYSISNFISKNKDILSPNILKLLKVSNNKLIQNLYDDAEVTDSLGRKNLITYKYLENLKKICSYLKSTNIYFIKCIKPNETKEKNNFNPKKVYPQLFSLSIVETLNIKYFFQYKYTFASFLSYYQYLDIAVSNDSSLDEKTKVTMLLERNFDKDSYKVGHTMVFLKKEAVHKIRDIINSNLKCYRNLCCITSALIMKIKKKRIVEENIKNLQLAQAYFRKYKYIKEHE
The assay can be described thus: affinity purification with mass spectrometry; GFP-Trap immunoprecipitates of schizont lysates, SDS-PAGE, trypsin digestion, LC-MS/MS; proteins with three or more peptides and absent from the 3D7 control.
As to “putative clathrin heavy chain (from UniProt Q8I5L6 1-1997)”, the binding result was “binds”.

As to “glideosome-associated protein 50 (GAP50)”, the binding result was “no binding”.

As for SEC31, the binding entry was “binds”. The same measure for polyubiquitin: “binds”; for “glideosome-associated protein 45 (GAP45) (from UniProt Q8I5I8 1-204)”: “no binding”. With “myosin light chain B (MLC-B), PF3D7_1118700 (from UniProt Q8III1 1-652)” the entry was “binds”; with “Myosin A (MyoA), endogenous untagged (from UniProt Q8IDR3 1-818)”, “no binding”; with acyl-CoA synthetase, “binds”.
